Results as given in publication PMC8228695.
No constants are given. Whether binding was seen depends on the method and setting. In cells and extracts the contact can be indirect. Some results given as binding are weak or reduced against the parent protein; the word gives no strength.

Protein sequences, listed by entry. Tags and fused reporters are not part of them.
UniProt Q9UM11: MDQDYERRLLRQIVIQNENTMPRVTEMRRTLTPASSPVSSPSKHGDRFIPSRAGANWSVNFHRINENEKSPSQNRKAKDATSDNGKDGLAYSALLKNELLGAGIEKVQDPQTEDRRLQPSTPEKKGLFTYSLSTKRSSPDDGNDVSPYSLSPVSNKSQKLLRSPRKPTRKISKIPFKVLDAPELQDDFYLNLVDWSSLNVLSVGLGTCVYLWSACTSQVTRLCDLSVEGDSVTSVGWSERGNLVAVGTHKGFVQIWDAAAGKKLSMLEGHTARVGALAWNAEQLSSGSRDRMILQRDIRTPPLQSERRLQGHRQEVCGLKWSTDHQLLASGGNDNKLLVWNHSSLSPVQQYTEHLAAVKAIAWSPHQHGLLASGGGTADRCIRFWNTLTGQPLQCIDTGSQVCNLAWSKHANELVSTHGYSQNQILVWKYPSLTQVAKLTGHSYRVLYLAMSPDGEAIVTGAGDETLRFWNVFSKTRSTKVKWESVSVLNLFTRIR

What was measured:
Experiment in all cases: co-IP; IP with anti-FBXL8, anti-FZR1 or anti-CCNF antibodies (control IgG or IgG2b) in BRCA cells, immunoblotting with anti-FBXL8, anti-FZR1, anti-CCNF or anti-RRM2 antibodies
[1] = molecular target: T1, FBXL8 (F-Box/Leucine Rich Repeat Protein 8) (human (endogenous in human BRCA cell lines MCF7, MDA-MB231)) (UniProt Q96CD0)
T1 sequence: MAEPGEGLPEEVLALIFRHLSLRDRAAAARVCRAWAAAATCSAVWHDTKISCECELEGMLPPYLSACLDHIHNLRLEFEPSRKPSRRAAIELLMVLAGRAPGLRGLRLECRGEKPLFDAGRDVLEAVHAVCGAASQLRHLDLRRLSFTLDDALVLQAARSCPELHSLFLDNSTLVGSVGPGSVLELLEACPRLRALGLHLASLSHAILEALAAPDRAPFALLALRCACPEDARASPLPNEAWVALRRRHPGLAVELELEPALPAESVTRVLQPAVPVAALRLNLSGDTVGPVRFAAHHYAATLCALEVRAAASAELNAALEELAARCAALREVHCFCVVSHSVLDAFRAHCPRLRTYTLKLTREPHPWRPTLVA

[2] = molecular target: FZR1 (human (endogenous in human BRCA cell lines MCF7, MDA-MB231)) (UniProt Q9UM11)
[3] = substrate: T2, CCNF (Cyclin F) (human (endogenous in human BRCA cell lines MCF7, MDA-MB231)) (UniProt P41002)
T2 sequence: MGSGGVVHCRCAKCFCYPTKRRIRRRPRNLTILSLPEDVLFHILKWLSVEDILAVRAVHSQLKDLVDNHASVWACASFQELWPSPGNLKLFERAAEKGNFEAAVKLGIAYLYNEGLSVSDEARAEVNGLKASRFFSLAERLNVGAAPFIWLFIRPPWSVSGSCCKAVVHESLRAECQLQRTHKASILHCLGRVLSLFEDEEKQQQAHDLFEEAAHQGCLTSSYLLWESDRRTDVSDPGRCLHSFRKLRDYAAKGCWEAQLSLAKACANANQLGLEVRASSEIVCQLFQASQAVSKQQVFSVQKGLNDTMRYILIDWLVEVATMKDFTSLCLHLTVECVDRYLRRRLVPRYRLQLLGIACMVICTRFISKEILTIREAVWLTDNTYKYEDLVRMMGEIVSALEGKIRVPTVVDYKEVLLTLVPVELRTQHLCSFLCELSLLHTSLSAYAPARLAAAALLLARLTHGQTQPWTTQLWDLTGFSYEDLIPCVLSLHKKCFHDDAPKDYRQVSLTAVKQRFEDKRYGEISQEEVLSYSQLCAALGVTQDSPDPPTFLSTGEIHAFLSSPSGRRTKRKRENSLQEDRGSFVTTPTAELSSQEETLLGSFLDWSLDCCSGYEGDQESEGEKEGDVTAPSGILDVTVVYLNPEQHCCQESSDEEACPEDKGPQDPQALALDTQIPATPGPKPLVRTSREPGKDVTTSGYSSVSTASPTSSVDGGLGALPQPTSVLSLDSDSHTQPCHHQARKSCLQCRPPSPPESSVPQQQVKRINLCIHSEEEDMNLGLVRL

B1: CCNF (Cyclin F) (protein, UniProt P41002 1-786)
chain: T2 sequence
[1]
  binding: binds
[2]
  binding: binds

B2: RRM2 (Ribonucleotide reductase M2) (protein, UniProt P31350 1-389)
chain: MLSLRVPLAPITDPQQLQLSPLKGLSLVDKENTPPALSGTRVLASKTARRIFQEPTEPKTKAAAPGVEDEPLLRENPRRFVIFPIEYHDIWQMYKKAEASFWTAEEVDLSKDIQHWESLKPEERYFISHVLAFFAASDGIVNENLVERFSQEVQITEARCFYGFQIAMENIHSEMYSLLIDTYIKDPKEREFLFNAIETMPCVKKKADWALRWIGDKEATYGERVVAFAAVEGIFFSGSFASIFWLKKRGLMPGLTFSNELISRDEGLHCDFACLMFKHLVHKPSEERVREIIINAVRIEQEFLTEALPVKLIGMNCTLMKQYIEFVADRLMLELGFSKVFRVENPFDFMENISLEGKTNFFEKRVGEYQRMGVMSSPTENSFTLDADF
[3]
  binding: binds
